Experimental data as given in the M2OR odorant receptor database.
The entries are a selection whose mix differs from that of the whole data set. The calls were merged from several studies; some rest on single wells. The list shows a part of the results.

Experiments:
Conditions in all cases: stereoisomer not certain
OR51I1 (Homo sapiens) = biological target: T1, OR51I1 (Homo sapiens) (UniProt Q9H343)
T1 sequence (whole entry): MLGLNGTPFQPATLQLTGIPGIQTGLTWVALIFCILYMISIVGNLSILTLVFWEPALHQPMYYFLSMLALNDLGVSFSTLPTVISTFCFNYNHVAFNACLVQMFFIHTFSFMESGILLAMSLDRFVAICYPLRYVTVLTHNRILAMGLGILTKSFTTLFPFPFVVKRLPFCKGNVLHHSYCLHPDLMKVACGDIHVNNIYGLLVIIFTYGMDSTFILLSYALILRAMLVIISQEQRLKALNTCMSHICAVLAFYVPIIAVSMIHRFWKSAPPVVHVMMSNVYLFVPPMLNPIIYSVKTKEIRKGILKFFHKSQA
In short: (§1)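 Transient luciferase assays in mammalian cell lines were common, though methods varied by source. The values come from published papers and their supplementary material, with extra details from the original authors when needed. Responsive refers to a measured signal the original authors judged statistically different from baseline, and non-responsive (inactive) to the remainder.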

OR51I2 (Homo sapiens) = biological target: T2, OR51I2 (Homo sapiens) (UniProt Q9H344)
T2 sequence (whole entry): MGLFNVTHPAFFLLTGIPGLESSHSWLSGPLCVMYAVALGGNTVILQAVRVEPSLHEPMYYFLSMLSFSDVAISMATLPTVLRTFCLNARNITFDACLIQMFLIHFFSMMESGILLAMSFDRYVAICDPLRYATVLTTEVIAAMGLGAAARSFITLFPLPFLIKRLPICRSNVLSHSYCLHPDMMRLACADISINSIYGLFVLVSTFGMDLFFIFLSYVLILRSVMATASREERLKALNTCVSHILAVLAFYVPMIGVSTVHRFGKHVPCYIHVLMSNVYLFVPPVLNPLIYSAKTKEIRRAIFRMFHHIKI
In short: as §1

OR51L1 (Homo sapiens) = biological target: T3, OR51L1 (Homo sapiens) (UniProt Q8NGJ5)
T3 sequence (whole entry): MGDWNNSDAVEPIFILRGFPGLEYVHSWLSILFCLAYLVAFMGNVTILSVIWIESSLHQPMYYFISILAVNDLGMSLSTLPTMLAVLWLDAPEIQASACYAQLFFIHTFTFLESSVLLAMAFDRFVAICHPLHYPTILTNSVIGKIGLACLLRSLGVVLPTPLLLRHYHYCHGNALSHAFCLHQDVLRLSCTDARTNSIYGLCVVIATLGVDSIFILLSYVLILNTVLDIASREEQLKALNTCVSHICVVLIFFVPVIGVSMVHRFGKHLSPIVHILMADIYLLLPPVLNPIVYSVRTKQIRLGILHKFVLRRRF
In short: as §1

OR51S1 (Homo sapiens) = biological target: T4, OR51S1 (Homo sapiens) (UniProt Q8NGJ8)
T4 sequence (whole entry): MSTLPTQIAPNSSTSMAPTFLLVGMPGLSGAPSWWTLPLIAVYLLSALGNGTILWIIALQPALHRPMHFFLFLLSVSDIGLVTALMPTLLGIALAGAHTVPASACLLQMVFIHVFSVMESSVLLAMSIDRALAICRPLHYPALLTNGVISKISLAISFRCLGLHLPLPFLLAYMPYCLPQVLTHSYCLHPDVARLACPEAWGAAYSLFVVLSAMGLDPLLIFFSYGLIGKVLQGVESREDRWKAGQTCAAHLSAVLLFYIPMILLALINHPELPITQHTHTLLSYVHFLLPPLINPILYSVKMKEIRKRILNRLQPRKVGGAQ
In short: as §1

OR52A4P (Homo sapiens) = biological target: T5, OR52A4P (Homo sapiens) (UniProt A6NMU1)
T5 sequence (whole entry): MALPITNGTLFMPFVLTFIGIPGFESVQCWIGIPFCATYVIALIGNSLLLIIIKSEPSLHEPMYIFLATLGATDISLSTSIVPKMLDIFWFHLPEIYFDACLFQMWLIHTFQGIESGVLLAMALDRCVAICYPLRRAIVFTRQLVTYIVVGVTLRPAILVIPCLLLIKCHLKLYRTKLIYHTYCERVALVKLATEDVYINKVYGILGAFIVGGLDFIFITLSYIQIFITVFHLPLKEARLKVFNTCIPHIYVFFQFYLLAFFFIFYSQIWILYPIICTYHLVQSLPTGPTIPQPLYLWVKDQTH
In short: as §1

OR52A5 (Homo sapiens) = biological target: T6, OR52A5 (Homo sapiens) (UniProt Q9H2C5)
T6 sequence (whole entry): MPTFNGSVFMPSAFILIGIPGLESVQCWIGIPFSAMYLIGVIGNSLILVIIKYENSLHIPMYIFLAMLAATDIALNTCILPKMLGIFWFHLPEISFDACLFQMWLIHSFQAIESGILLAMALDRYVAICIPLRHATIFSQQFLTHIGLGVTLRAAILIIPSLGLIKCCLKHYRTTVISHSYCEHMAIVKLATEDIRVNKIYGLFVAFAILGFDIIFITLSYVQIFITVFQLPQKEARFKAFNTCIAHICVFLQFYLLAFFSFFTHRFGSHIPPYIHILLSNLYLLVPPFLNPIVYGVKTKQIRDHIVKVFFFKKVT
In short: as §1

OR52B4 (Homo sapiens) = biological target: T7, OR52B4 (Homo sapiens) (UniProt Q8NGK2)
T7 sequence (whole entry): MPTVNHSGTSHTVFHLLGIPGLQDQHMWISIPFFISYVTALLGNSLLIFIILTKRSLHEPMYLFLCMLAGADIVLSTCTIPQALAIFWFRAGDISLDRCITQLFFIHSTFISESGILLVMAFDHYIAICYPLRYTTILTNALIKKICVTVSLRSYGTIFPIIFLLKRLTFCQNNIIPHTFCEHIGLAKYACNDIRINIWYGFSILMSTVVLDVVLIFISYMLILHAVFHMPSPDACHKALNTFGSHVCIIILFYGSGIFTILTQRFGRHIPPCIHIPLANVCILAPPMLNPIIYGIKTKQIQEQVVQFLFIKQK
In short: as §1

OR52D1 (Homo sapiens) = biological target: T8, OR52D1 (Homo sapiens) (UniProt Q9H346)
T8 sequence (whole entry): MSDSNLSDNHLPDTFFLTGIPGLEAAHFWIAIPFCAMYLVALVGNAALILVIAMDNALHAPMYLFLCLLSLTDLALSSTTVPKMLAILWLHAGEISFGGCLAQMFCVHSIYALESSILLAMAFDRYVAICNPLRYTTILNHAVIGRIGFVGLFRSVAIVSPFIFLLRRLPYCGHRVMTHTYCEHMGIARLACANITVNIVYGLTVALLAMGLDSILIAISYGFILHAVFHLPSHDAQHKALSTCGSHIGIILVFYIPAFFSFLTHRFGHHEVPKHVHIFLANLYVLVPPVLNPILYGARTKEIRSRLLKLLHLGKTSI
In short: as §1
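Further: active if original authors judged signal statistically different from baseline.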

SMILES | odorant receptor agonist call (OR51I1 (Homo sapiens)) | odorant receptor agonist call (OR51I2 (Homo sapiens)) | odorant receptor agonist call (OR51L1 (Homo sapiens)) | odorant receptor agonist call (OR51S1 (Homo sapiens)) | odorant receptor agonist call (OR52A4P (Homo sapiens)) | odorant receptor agonist call (OR52A5 (Homo sapiens)) | odorant receptor agonist call (OR52B4 (Homo sapiens)) | odorant receptor agonist call (OR52D1 (Homo sapiens))
CCCCCOC(C)=O | active | inactive | inactive | inactive | inactive | inactive | inactive | inactive
CCCCCCCCCCC=O | active | inactive | inactive | inactive | inactive | inactive | inactive | inactive
C=CCc1ccc(OC(C)=O)c(OC)c1 | active | inactive | inactive | active | active | active | inactive | inactive
CC1=CCC(C(C)(C)O)CC1 (configuration not stated) | active | inactive | inactive | inactive | inactive | inactive | inactive | inactive
CC1COCc2cc3c(cc21)C(C)(C)C(C)C3(C)C (configuration not stated) | active | inactive | active | active | inactive | active | active | inactive
C=CC(C)(O)CCC=C(C)C (configuration not stated) | inactive | inactive | inactive | inactive | inactive | inactive | inactive | inactive
CCCCCCOC(=O)CCC | inactive | inactive | inactive | inactive | inactive | inactive | inactive | inactive
CC(=O)c1ccccc1 |  | inactive | inactive |  |  |  | inactive | active
CC12CCC(C1)C(C)(C)C2=O (configuration not stated) | inactive | inactive | inactive | inactive | inactive | inactive | inactive | inactive
COC(=O)c1ccccc1 |  | inactive | inactive |  |  |  | inactive | inactive
CC(=O)OCC=C(C)CCC=C(C)C | inactive | inactive | inactive | active | active | active | inactive | inactive
O=C1CCCCC1 |  | inactive | inactive |  |  |  | inactive | active
C=C(C)C1CCC2=CC(=O)CC(C)C2(C)C1 (configuration not stated) | active |  |  | active | inactive | inactive |  | 
CC(C)(O)CCCC1=CCC(C=O)CC1 (configuration not stated) | active |  | inactive | inactive | inactive | inactive |  | inactive
CCCCCCCC=CC=O | inactive | inactive | inactive | inactive | inactive | inactive | inactive | inactive

Single values from the entries so far.
Value for CC12CCC(C1)C(C)(C)C2=O (configuration not stated) under odorant receptor agonist call (OR52A4P (Homo sapiens)): inactive
Value for C=C(C)C1CCC2=CC(=O)CC(C)C2(C)C1 (configuration not stated) under odorant receptor agonist call (OR51I1 (Homo sapiens)): active
